The first data set can be described thus: Gluing of beef pieces as tissue substitute, stability of the adhesive layer tested by pulling. The note with it: 1 g prepolymer A-1 with equivalent quantity of diamine, applied thinly onto tissue. Also noted: key to Adhesive strength: ++: high adhesive strength, the tissue tears on pulling; −: low adhesive strength, the adhesive suture detaches from the tissue. On the procedure:
As a tissue substitute, beef was used. In each case, two pieces of meat (1=4 cm, h=0.3 cm, b=1 cm) were spread with the adhesive at the ends over a 1 cm width and glued overlapping. In each case, the stability of the adhesive layer was tested by pulling.
1 g of the prepolymer A-1 were stirred well in a beaker with an equivalent quantity of dimethyl 2,2′-(pentane-1,5-diylbis(azandiyl))bis(4-methylpentanoate). Directly after this, the reaction mixture was applied thinly onto the tissue to be glued. […] After 2 mins, the surface of the adhesive was no longer tacky.
Take `COC(=O)C(CC(C)C)NCCCCCNC(CC(C)C)C(=O)OC` (centres unmarked) [Example 2, Dimethyl 2,2′-(pentan-1,5-diylbis(azandiyl))bis(4-methylpentanoate)]: the “Adhesion to tissue” value is on record as “strong adhesion”.

Staying with this data set, now noted: glued beef pieces, pulling.
`CCOC(=O)C(C)NCCCCNC(C)C(=O)OCC` (centres unmarked): the Adhesive strength entry is listed as “−”.
On the same count and under the same terms, the value for `CCOC(=O)C(C)NCCCCCNC(C)C(=O)OCC` (centres unmarked) was “−”.
On the same count and under the same terms, the value for `COC(=O)C(Cc1ccccc1)NCCCNC(Cc1ccccc1)C(=O)OC` (centres unmarked) was “−”; that for `COC(=O)C(Cc1ccccc1)NCCCCCCNC(Cc1ccccc1)C(=O)OC` (centres unmarked) was “−”; that for `CCC(C)C(NCCCNC(C(=O)OC)C(C)CC)C(=O)OC` (centres unmarked) was “++”.
Still for that read-out and setting: the value for `COC(=O)C(NCCCNC(C(=O)OC)C(C)C)C(C)C` (centres unmarked) was “++”; that for `COC(=O)C(CC(C)C)NCCCCCNC(CC(C)C)C(=O)OC` (centres unmarked) [drawing 17] was “++”.
